Data: PubChem BioAssay AID485314 (National Center for Advancing Translational Sciences (NCATS), 2010)
“And” between values parts separate entries of the source, which are not always exact repeats. Identical values can stand only once. Hit rate of the full screen: of about 340,000 compounds, about 4,500 (1.3%) were called active. This list was built around the results that the source calls inconclusive (neither active nor inactive); the mix of calls is not that of the screen. Calls come from the whole dose curve; as a rule, active = well fitted inhibition curve with a large enough effect; inconclusive = small, poorly fitted or top-dose-only effect, or another doubt; inactive = no such curve, though single readings can be large or run the other way. A potency beside an inconclusive call is a rough fit, not a confirmed value.

molecular target: DNA polymerase beta (Homo sapiens) (UniProt P06746); assay: qHTS Assay for Inhibitors of DNA Polymerase Beta; details: Pol beta primer extension/strand displacement, fluorescence kinetic; activity change, negative = inhibition: at 114 µM (top of the series)
In short: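 Pol beta (10 nM) was preincubated with compound for 15 min at room temperature. The reaction was then started with 50 nM substrate and read immediately and after a further 10 min at room temperature.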
% is set by controls: 0 for no effect and ±100 for the full control effect; potency is the fitted concentration of half-maximal effect.

Structure (SMILES)	Potency	activity change, negative = inhibition
COc1ccc(CC(=O)N/N=C/c2ccc(-c3cccc(C(=O)O)c3)o2)cc1OC	active: 12.6 µM	
CCSc1nnc(NC(=O)C2Cc3ccccc3CN2C(=O)c2ccco2)s1 (stereo unspecified)	active: 22.4 µM	
Oc1ccc(C2C[C@H]3CC[C@@H]2C3)cc1O (stereo partly specified)	inconclusive: 20 µM [inhibitor, single point]	
CCOc1ccc(OCC)c(NC(=O)Nc2ccc3c(c2)N(C)C(=O)CS3)c1	inconclusive: 89.1 µM [inhibitor, single point]	
COc1ccc(CNC(=O)c2ccc(CNS(=O)(=O)c3ccc(F)cc3)cc2)cc1	inactive	
Cc1ccc(NC(=O)Cn2nnc(C(=O)NCc3cccs3)c2N)cc1Cl	inconclusive: 22.4 µM [inhibitor, partial curve, poor fit] and inconclusive: 89.1 µM [inhibitor, single point]	
CCC1CCC2(CC1)NC(CO)(CO)CO2 (stereo unspecified)	inconclusive: 22.4 µM [inhibitor, partial curve, poor fit]	
O=C(O)c1ccc(S(=O)(=O)c2ccc3c(c2)C(=O)N(NC(=O)c2ccc(O)cc2)C3=O)cc1	active: 28.2 µM	
O=C(CSc1ncccc1-c1nc2ccccc2[nH]1)NCc1ccco1	active: 31.6 µM	
CCCc1c(C(=O)N/N=C/c2cccs2)nnn1-c1nonc1N	inconclusive: 39.8 µM [inhibitor, full curve]	
CCOc1ccc(C(=O)/C=C/Nc2ccc(S(=O)(=O)Nc3cc(C)nc(C)n3)cc2)cc1	active: 8.91 µM	
COc1cccc2cc(C(=O)NCC3CCCO3)c(=O)oc12 (stereo unspecified)	inconclusive: 89.1 µM [inhibitor, single point]	
CC(C)(C)C1CCC2(CC1)NC(=S)N(c1ccccc1)N2 (stereo unspecified)	inconclusive: 39.8 µM [inhibitor, single point]	
CN(C)N1C(N)=C(C#N)C(c2ccccc2Cl)C2=C1CCCC2=O (stereo unspecified)	inconclusive: 0.141 µM [inhibitor, full curve, poor fit]	
O=C(O)c1cc(NN=Nc2ccc(Br)cc2)cc([N+](=O)[O-])c1	inconclusive: 89.1 µM [inhibitor, single point]	
Cc1c(N2C(=O)/C(=C/C3CC=CCC3)SC2=S)c(=O)n(-c2ccccc2)n1C (stereo unspecified)	inactive	
C=CC[n+]1ccc(/C=C2\C=Cc3cc(C)ccc3N2CC)c2ccccc21	inconclusive: 31.6 µM [inhibitor, full curve]	
COc1ccc(OC)c(CNC(=O)CN2CC(C)Sc3ccccc32)c1 (stereo unspecified)	inconclusive: 89.1 µM [inhibitor, single point]	
O=C(Nc1sc2c(c1C(=O)O)CCC2)C(=O)N1CCOCC1	inconclusive: 70.8 µM [inhibitor, partial curve, poor fit]	
COc1ccc(CN(C)Cc2ccccc2)c(OC)c1OC	inconclusive: 39.8 µM [inhibitor, single point]	
COC(=O)c1cc(NC(=O)c2ccc3c(c2)NC(=O)c2ccccc2S3)cc(C(=O)OC)c1	active: 6.31 µM	

Structure (SMILES)	Potency	activity change, negative = inhibition
COc1ccc(-c2nc3c(c(SCC(=O)N4CCCCC4)n2)Cc2c(CO)cnc(C)c2O3)cc1	inactive	
O=C(CCc1c[nH]c2ccccc12)NC(Cc1c[nH]c2ccccc12)C(=O)O (stereo unspecified)	inconclusive: 89.1 µM [inhibitor, single point]	
CSc1cccc(NC(=O)Cn2ncn3c(cc4ccccc43)c2=O)c1	inactive	
CCC(=O)N1CCc2cc(CNC(=O)Nc3cc(Cl)ccc3C(=O)OC)ccc21	inactive	
COc1ccccc1OC(=O)CCc1nc2ccccc2s1	inconclusive: 17.8 µM [inhibitor, full curve]	
COc1ccc(Cc2nnc(SCC(=O)Nc3ncc(C)s3)o2)cc1	inactive	
CC(=O)N1c2ccc(S(=O)(=O)NCC3CCC(C(=O)NC4CCCCC4)CC3)cc2CC1C (stereo unspecified)	inconclusive: 79.4 µM [inhibitor, partial curve]	
Cc1ccc(C(=O)NCCOc2cccc(C)c2)cc1	inconclusive: 44.7 µM [inhibitor, partial curve]	
CSc1oc(-c2ccco2)nc1S(=O)(=O)c1ccc(Br)cc1	inconclusive: 39.8 µM [inhibitor, partial curve]	
Cn1nnnc1SCCNCc1ccc(OCc2ccc(Cl)cc2)cc1	inactive	
Cc1cc(S(=O)(=O)N2CCC(NC(=O)C34CC5CC(CC(C5)C3)C4)CC2)ccc1-n1cnnn1	inconclusive: 100 µM [inhibitor, partial curve, poor fit]	
C=Cc1ccc(Cn2c(=O)cc(C)c3c(C)nn(C)c32)cc1	inactive	
CCCCn1c(/N=C/c2ccccc2NS(=O)(=O)c2ccc(C)cc2)nc2ccccc21	inconclusive: 89.1 µM [inhibitor, single point]	
COc1ccccc1-n1cnc2c(c1=O)c1nc3ccccc3nc1n2-c1ccc(C)c(C)c1	inconclusive: 4.47 µM [inhibitor, full curve, poor fit]	
COc1cc(/C=N/NC(=O)c2cc(-c3c(C)nn(-c4ccccc4)c3C)n[nH]2)ccc1O	inconclusive: 5.01 µM [inhibitor, full curve, poor fit]	
Cc1cccc(SC2CCN(Cc3nc(CC4CC4)no3)CC2)c1	inconclusive: 89.1 µM [inhibitor, single point]	
N#Cc1ccc(-n2nccc2-c2cnc3n(c2=O)CCS3)cc1	inconclusive: 25.1 µM [inhibitor, single point]	
Cc1c(C(=O)N2CCC(C)CC2)c(S(=O)(=O)N2CCN(c3cccc(Cl)c3)CC2)c(C)n1C	inactive	
COC(=O)c1sc(N2C(=O)C(O)=C(C(=O)c3ccc(C)o3)C2c2ccc(F)cc2)nc1C (stereo unspecified)	inconclusive: 39.8 µM [inhibitor, single point]	
COCc1cc(CN2CCN(CCCc3ccccc3)C(CCO)C2)ccc1OC (stereo unspecified)	inconclusive: 5.01 µM [inhibitor, full curve, poor fit]	
CN(Cc1nc(-c2cccs2)no1)CC1(N2CCOCC2)CCCCC1	inconclusive: 3.16 µM [inhibitor, single point]	
COc1ccc(Nc2cc(C(=O)NCc3ccccc3)c3ccccc3n2)cc1OC	inconclusive: 15.8 µM [inhibitor, full curve, poor fit]	

Structure (SMILES)	Potency	activity change, negative = inhibition
COc1cccc(/C=N/NC(=S)Nc2cccc(C(=O)O)c2)c1	inconclusive: 89.1 µM [inhibitor, single point]	
COC(=O)c1cc(NC(=O)Nc2ccccc2OC)cc(C(=O)OC)c1	inconclusive: 25.1 µM [inhibitor, full curve, poor fit]	
Nc1nc(SCC(=O)NN(c2ccccc2)c2ccccc2)n[nH]1	inconclusive: 0.891 µM [inhibitor, full curve, poor fit]	
Cc1cccc(-c2nc3c(c(SCC(=O)N4CCCC4)n2)COC(C)(C)C3)c1	inactive	
COc1cc(OC)c(OC)cc1/C=N/NC(=S)NCC1CCCO1 (stereo unspecified)	inconclusive: 0.112 µM [inhibitor, full curve, poor fit]	
O=C(CCS(=O)(=O)c1ccc(Br)cc1)NC1CCCC1	active: 22.4 µM	
O=C(N/N=C/c1ccc(C(=O)O)cc1)C1=NNC(c2ccccc2)(c2ccccc2)C1	inconclusive: 79.4 µM [inhibitor, single point]	
O=[N+]([O-])c1cc(C(F)(F)F)ccc1NCCc1c[nH]c2ccc(O)cc12	inconclusive: 0.158 µM [inhibitor, full curve, poor fit]	
C=CCOc1cccc(C2C(C(=O)c3ccc(C)o3)=C(O)C(=O)N2c2nccs2)c1 (stereo unspecified)	inconclusive: 31.6 µM [inhibitor, full curve]	
CCCc1cc(=O)oc2cc(C)c(CN3CCCC3)c(O)c12	active: 6.31 µM	
O=C(N/N=C/c1ccco1)c1cccc(S(=O)(=O)Nc2ccccc2Cl)c1	active: 22.4 µM	
COc1ccc(N/C=C/C(=O)c2cc(OC)c(OC)c(OC)c2)cc1	inconclusive: 63.1 µM [inhibitor, partial curve, poor fit]	
CCn1nc(C(=O)OCC(=O)N2c3ccccc3CC2C)c2ccccc2c1=O (stereo unspecified)	inconclusive: 0.1 µM [inhibitor, full curve]	
COc1cccc(C(=O)OCC(=O)c2ccc(Br)s2)c1	inconclusive: 17.8 µM [inhibitor, full curve]	
O=[N+]([O-])c1ccc(/C=[N+](\[O-])[C@@H]2CCCC[C@@H]2/[N+]([O-])=C/c2ccc([N+](=O)[O-])o2)o1		inconclusive: -78% [inhibitor]
COc1ccccc1NC(=O)Cn1cncc1-c1ccc([N+](=O)[O-])cc1	inactive	
CC(=O)Nc1cc(C(=O)N2CCc3ccccc3C2)ccc1Sc1ccc(C)cc1	inconclusive: 39.8 µM [inhibitor, single point]	
Cc1cc(NC(=O)c2ccc(S(=O)(=O)N3CCOCC3)cc2)no1	inactive	
Cc1ccc(NC(=O)c2cc(S(=O)(=O)N3CCCC3)c[nH]2)c(C)c1	inconclusive: 15.8 µM [inhibitor, partial curve, poor fit]	
Cc1cncn1CCc1nc2c3ccccc3nc(SCC(=O)Nc3ccccc3F)n2n1	inconclusive: 15.8 µM [inhibitor, full curve]	
Cc1ccc(Cn2c(C)c(CNC(C)c3ccccc3)c(C(=O)O)c2C)cc1 (stereo unspecified)	inactive	
CN1CCCN(Cc2ccccc2C(F)(F)F)CC1	inconclusive: 8.91 µM [inhibitor, full curve, poor fit]	
